# Laboratory results: paper PMC10113393
# Sequences of proteins named here, by UniProt entry; tags and fusion partners are left off.
# UniProt P33176: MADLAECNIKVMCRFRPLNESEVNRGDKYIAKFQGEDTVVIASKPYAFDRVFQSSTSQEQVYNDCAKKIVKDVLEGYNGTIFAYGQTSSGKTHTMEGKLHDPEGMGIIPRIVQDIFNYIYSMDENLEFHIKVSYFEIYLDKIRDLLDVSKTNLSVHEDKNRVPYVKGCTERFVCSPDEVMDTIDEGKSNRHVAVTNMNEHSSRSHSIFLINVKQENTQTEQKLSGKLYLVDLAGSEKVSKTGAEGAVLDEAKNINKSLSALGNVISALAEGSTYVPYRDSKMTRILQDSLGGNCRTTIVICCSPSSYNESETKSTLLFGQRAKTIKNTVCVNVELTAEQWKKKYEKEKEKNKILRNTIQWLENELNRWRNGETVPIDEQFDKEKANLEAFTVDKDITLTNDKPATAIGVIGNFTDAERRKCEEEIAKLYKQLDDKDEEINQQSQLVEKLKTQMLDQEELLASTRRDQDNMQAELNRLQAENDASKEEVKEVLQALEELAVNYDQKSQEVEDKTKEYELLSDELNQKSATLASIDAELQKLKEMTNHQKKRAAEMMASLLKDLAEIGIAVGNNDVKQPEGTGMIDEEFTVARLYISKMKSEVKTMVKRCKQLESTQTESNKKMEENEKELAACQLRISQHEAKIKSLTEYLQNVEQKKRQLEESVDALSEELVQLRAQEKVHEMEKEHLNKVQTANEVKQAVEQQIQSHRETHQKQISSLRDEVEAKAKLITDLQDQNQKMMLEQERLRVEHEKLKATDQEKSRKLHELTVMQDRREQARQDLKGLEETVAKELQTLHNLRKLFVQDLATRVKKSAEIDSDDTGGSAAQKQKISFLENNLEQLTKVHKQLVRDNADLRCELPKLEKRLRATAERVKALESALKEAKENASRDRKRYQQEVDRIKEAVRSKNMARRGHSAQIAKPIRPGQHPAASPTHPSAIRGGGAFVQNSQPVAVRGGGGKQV
# UniProt O00429: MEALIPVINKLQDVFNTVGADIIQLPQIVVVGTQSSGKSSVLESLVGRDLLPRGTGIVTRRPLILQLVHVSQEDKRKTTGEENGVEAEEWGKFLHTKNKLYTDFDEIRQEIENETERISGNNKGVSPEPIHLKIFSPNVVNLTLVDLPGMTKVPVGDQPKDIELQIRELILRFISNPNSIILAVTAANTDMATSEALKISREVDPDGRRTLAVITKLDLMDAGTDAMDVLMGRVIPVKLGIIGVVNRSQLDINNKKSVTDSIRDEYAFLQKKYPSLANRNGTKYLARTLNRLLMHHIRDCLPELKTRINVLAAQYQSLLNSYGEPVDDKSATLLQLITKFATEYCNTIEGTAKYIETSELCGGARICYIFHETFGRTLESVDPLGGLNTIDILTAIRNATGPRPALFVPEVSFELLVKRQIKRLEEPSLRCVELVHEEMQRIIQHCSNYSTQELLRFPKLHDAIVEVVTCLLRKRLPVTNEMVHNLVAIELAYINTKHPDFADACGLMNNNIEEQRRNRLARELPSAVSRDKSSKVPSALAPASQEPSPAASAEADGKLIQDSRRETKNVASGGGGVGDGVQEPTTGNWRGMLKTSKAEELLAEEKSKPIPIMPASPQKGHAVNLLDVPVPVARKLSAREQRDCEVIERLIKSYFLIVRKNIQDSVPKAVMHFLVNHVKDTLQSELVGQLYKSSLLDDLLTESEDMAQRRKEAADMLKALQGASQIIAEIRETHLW
# These are yes or no findings as the source states them, for the method shown. In cells and extracts the contact can be indirect. Some entries that bind do so weakly or less than the wild type.
# Target: Kinesin family member 5B (human (endogenous in A549 and SK-N-BE(2)C)) (UniProt P33176)
# Assay: co-IP; endogenous proteins in A549 and SK-N-BE(2)C lysates; anti-KIF5B or anti-DRP1 antibody; Pierce IP lysis buffer, 4 °C overnight, Dynabeads Protein A; western blotting
substance,measurement,value
GTPase dynamin-related protein 1 (from UniProt O00429 1-736),binding,binds
